This is an account of results in patent US20040235922A1, “Compositions and methods for inducing adipose tissue cell death” (priority 2003, published 2004).

Structures can show the parent of a compound that is named as a salt.

The data set can be described thus: 21 day oral (diet) treatment of mice: body weight, food intake, feed efficiency, body temperature, body composition by PIXImus densitometry (Example 1). The class given is in vivo. Conditions: 21 days, ICR mice. The procedure: The effects of clenbuterol, a β2-AR agonist, and ractopamine, a β1/β2-AR agonist, on growth, adiposity and adipose tissue apoptosis in male and female mice have been tested by feeding diets containing control, 200 ppm clenbuterol, or 200 or 800 ppm ractopamine. Food intake (FI) was measured daily; body weight (BW) and temperatures (BT) were measured on days 0, 3, 7, 10, 14, 17, and 20. On day 21 mice were sacrificed, body composition was determined using PIXImus densitometry, and muscle and adipose tissues were collected. There were no treatment effects on BT, FI, BW, feed efficiency or body composition. Retroperitoneal (Rp) and epididymal/parametrial (Epi/Par) fat pad masses were reduced in both 800 ppm ractopamine (40±3 and 207±20 mg, respectively) and clenbuterol (35±7 and 211±22 mg) treated mice compared to control (66±8 and 319±30 mg, p<0.05). Brown adipose tissue (BAT) mass was greater (p<0.05) in clenbuterol treated mice compared to other treatments. Adipose tissue apoptosis (% DNA fragmentation) was increased in Epi/Par fat pads in clenbuterol (5.2+1.1%) and 800 ppm ractopamine (4.1±0.8%) treated mice compared to control (1.7+0.4%, p<0.05).
Animals: Five week old male (n=20) and female (n=20) ICR mice (Harlan Research Laboratories, Indianapolis, Ind.) were allowed to acclimate for one week prior to the experiment start date. Animals were housed singly in suspended wire cages and were provided ground rodent chow (ProLab® RMH 2500; Purina Mills, St. Louis, Mo.) and water ad libitum. […]
Materials: Test articles included clenbuterol (Sigma Chemical Company, St. Louis, Mo., item # C5423) and ractopamine hydrochloride—Paylean® 9 (Elanco Animal Health, Indianapolis, Ind.). Clenbuterol is available as a pure product, and ractopamine is readily available as a type A medicated article. […]
Daily Observations: Food intake was measured daily, while body weight and body temperatures were measured on days 0, 3, 7, 10, 14, 17, and 20 at approximately the same time of day (1300 hours) during the treatment period. […]

As to `CC(CCc1ccc(O)cc1)NCC(O)c1ccc(O)cc1` (racemic) [Ractopamine, ractopamine hydrochloride], the “Body Temp” value runs as follows: (200 ppm in diet) 37.0 °C; (800 ppm in diet) 36.8 °C.
With `CC(C)(C)NCC(O)c1cc(Cl)c(N)c(Cl)c1` (stereo not drawn) [Clenbuterol, clenbuterol], the “Body Temp” value (200 ppm in diet) is 36.2 °C.
